# Results from publication PMC13304329.
# The chains behind the UniProt entries cited, without tags or fusion partners.
# UniProt Q5S007: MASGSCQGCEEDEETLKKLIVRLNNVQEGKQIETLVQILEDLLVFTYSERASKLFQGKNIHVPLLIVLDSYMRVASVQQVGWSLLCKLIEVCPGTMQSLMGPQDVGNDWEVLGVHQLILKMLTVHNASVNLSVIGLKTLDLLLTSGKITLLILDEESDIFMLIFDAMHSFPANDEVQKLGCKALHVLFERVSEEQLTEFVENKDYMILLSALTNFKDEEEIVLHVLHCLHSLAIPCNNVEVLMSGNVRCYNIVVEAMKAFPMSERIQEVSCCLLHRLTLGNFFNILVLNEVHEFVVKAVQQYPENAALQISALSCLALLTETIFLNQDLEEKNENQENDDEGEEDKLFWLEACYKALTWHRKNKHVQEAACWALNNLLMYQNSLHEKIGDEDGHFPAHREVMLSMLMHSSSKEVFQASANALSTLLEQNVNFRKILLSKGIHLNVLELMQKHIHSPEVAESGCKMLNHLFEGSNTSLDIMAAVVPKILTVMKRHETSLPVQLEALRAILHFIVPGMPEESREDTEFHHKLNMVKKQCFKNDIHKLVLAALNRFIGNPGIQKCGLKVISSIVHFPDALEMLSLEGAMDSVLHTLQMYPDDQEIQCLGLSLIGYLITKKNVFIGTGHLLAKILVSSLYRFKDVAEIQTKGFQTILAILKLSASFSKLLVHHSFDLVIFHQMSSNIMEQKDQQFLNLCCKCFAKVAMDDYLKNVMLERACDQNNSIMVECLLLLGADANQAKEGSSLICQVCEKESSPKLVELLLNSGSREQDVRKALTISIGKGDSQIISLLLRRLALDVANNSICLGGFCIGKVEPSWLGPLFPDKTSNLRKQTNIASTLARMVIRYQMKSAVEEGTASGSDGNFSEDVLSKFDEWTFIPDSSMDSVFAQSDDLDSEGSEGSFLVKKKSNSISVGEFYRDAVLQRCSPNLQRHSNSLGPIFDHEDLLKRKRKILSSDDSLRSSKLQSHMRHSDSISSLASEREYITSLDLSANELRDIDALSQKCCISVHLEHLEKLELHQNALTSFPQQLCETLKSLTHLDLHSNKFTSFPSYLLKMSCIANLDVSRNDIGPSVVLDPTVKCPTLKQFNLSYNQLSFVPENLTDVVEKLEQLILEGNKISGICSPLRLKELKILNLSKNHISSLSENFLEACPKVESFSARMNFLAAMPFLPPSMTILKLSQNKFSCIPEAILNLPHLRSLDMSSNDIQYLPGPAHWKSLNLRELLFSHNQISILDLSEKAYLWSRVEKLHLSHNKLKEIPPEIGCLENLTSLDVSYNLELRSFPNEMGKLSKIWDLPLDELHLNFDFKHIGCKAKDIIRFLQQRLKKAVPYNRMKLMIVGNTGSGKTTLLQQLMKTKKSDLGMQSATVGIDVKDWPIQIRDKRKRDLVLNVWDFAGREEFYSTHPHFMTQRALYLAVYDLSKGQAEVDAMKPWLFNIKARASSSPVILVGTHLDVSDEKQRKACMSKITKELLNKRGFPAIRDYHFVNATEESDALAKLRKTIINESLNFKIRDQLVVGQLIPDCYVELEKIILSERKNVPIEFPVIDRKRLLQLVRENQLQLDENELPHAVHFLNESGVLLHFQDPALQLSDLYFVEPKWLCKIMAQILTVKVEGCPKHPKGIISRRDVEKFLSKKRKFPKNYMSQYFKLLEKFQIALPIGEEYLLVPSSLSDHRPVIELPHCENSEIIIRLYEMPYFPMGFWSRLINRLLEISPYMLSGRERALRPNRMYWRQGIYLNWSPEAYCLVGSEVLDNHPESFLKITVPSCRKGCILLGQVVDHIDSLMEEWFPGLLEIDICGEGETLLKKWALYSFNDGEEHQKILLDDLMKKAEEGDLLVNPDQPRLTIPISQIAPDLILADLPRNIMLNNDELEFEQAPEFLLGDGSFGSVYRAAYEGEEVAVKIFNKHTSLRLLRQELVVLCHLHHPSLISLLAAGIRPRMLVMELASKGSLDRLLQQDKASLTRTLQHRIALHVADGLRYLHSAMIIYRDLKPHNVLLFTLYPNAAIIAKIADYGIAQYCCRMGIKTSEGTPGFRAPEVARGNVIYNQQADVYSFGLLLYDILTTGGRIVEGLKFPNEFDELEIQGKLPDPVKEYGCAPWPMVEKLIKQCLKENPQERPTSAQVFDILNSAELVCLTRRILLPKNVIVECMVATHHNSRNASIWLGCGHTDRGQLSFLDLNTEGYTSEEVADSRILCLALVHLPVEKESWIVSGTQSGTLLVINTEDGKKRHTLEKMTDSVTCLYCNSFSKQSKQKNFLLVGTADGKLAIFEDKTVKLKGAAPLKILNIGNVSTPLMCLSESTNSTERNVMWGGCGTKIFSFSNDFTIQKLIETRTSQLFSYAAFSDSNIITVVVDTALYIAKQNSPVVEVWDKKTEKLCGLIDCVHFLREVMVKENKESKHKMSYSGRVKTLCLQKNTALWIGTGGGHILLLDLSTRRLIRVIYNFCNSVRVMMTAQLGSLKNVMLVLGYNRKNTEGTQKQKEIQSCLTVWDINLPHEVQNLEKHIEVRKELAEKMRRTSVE
# These are yes or no findings as the source states them, for the method shown. Binding seen in cells or lysates may run through a third protein. Here binding means that the protein was enriched with, or labelled near, the bait; the list need not be complete.
# B1: Syntaxin-5 (protein, UniProt Q13190 1-355)
# chain: MIPRKRYGSKNTDQGVYLGLSKTQVLSPATAGSSSSDIAPLPPPVTLVPPPPDTMSCRDRTQEFLSACKSLQTRQNGIQTNKPALRAVRQRSEFTLMAKRIGKDLSNTFAKLEKLTILAKRKSLFDDKAVEIEELTYIIKQDINSLNKQIAQLQDFVRAKGSQSGRHLQTHSNTIVVSLQSKLASMSNDFKSVLEVRTENLKQQRSRREQFSRAPVSALPLAPNHLGGGAVVLGAESHASKDVAIDMMDSRTSQQLQLIDEQDSYIQSRADTMQNIESTIVELGSIFQQLAHMVKEQEETIQRIDENVLGAQLDVEAAHSEILKYFQSVTSNRWLMVKIFLILIVFFIIFVVFLA
# B2: Septin-6 (protein, UniProt Q14141 1-434)
# chain: MAATDIARQVGEGCRTVPLAGHVGFDSLPDQLVNKSVSQGFCFNILCVGETGLGKSTLMDTLFNTKFEGEPATHTQPGVQLQSNTYDLQESNVRLKLTIVSTVGFGDQINKEDSYKPIVEFIDAQFEAYLQEELKIRRVLHTYHDSRIHVCLYFIAPTGHSLKSLDLVTMKKLDSKVNIIPIIAKADAISKSELTKFKIKITSELVSNGVQIYQFPTDDESVAEINGTMNAHLPFAVIGSTEELKIGNKMMRARQYPWGTVQVENEAHCDFVKLREMLIRVNMEDLREQTHTRHYELYRRCKLEEMGFKDTDPDSKPFSLQETYEAKRNEFLGELQKKEEEMRQMFVQRVKEKEAELKEAEKELHEKFDRLKKLHQDEKKKLEDKKKSLDDEVNAFKQRKTAAELLQSQGSQAGGSQTLKRDKEKKNNPWLCTE
# B3: Rho GTPase-activating protein 1 (protein, UniProt Q07960 1-439)
# chain: MDPLSELQDDLTLDDTSEALNQLKLASIDEKNWPSDEMPDFPKSDDSKSSSPELVTHLKWDDPYYDIARHQIVEVAGDDKYGRKIIVFSACRMPPSHQLDHSKLLGYLKHTLDQYVESDYTLLYLHHGLTSDNKPSLSWLRDAYREFDRKYKKNIKALYIVHPTMFIKTLLILFKPLISFKFGQKIFYVNYLSELSEHVKLEQLGIPRQVLKYDDFLKSTQKSPATAPKPMPPRPPLPNQQFGVSLQHLQEKNPEQEPIPIVLRETVAYLQAHALTTEGIFRRSANTQVVREVQQKYNMGLPVDFDQYNELHLPAVILKTFLRELPEPLLTFDLYPHVVGFLNIDESQRVPATLQVLQTLPEENYQVLRFLTAFLVQISAHSDQNKMTNTNLAVVFGPNLLWAKDAAITLKAINPINTFTKFLLDHQGELFPSPDPSGL
# Target: miniTurbo-LRRK2 (human) (UniProt Q5S007)
# Assay: proximity labelling; mT-LRRK2 co-expressed with HA-RAB29 against empty pcDNA3.0 vector; biotin labelling, Strep-Tactin enrichment, LC-MSMS, LFQ with FDR-controlled t test
row,Binder,binding
1,B1,binds
2,B2,binds
3,B3,binds
